Molecules are shown by their SMILES. Structures can show the parent of a compound that is named as a salt. The list shows a part of the results. Cut-off read from the data, not from the text of the source: active = 2.5 or more and inactive = the rest. Repeats in this data set agree poorly, so a single value says little.

67 compounds from the supplement of paper PMC4683952 can be followed below.

The test concerns Lgr5 (MarsCy1-Lgr5-EGFP, U2OS). The test can be described thus: cell-surface Lgr5 expression (SCi1 fluorescence, background-subtracted) relative to WT control (fold of WT control); higher = more Lgr5 at the plasma membrane. Conditions: U2OS MarsCy1-Lgr5-EGFP stable; treatment time: overnight; library: Prestwick; 20 µM.
In the case of `COc1c2occc2cc2ccc(=O)oc12` [Methoxy-8-psoralen], the “cell-surface Lgr5 expression” value was inactive: 0.77.
As for `CN1CCN(C2=Nc3ccccc3Oc3ccc(Cl)cc32)CC1` [Loxapine succinate], the figure is inactive: 1.05; as for `C[C@@H]1C[C@H]2[C@@H]3C[C@H](F)C4=CC(=O)C=C[C@]4(C)[C@@]3(F)[C@@H](O)C[C@]2(C)[C@@]1(O)C(=O)CO` [Flumethasone], active: 2.95; as for `O=C(O)Cc1ccc(-c2ccccc2)cc1` [Felbinac], inactive: 1.91.
As for `COc1cc(C(=O)OCCCN2CCCN(CCCOC(=O)c3cc(OC)c(OC)c(OC)c3)CC2)cc(OC)c1OC` [Dilazep dihydrochloride], the figure is inactive: 0.614.
In the case of `Cc1[nH]ccc2c1[nH]c1cc(=O)ccc12` [Harmol hydrochloride monohydrate], the “cell-surface Lgr5 expression” value was inactive: 0.978.
As for `CCN(CC)CCOC(=O)C1(C2CCCCC2)CCCCC1` [Dicyclomine hydrochloride], the figure is inactive: 1.88; as for `CC(N/C(=N\C#N)Nc1ccncc1)C(C)(C)C` (configuration not stated) [Pinacidil], inactive: 0.822.
As for `COc1ccc([C@@H]2CC(=O)c3c(O)cc(O)cc3O2)cc1O` [Hesperetin], the figure is inactive: 0.844.
As for `CN(C)CCCN1c2ccccc2Sc2ccc(C(F)(F)F)cc21` [Triflupromazine hydrochloride], the figure is inactive: 1.93; as for `Cc1ccc(C(=O)c2ccc(CC(=O)O)n2C)cc1` [Tolmetin sodium salt dihydrate], inactive: 1.91; as for `COC(=O)Nc1nc2cc(C(=O)c3cccs3)ccc2[nH]1` [Nocodazole], inactive: 0.941.
For `CCCCN(CCCC)CCCOC(=O)c1ccc(N)cc1` [Butacaine], the “cell-surface Lgr5 expression” value was active: 2.64.
For `CC[N+](C)(CC)CCOC(=O)C1c2ccccc2Oc2ccccc21` [Methantheline bromide] the value was inactive: 1.21.
For `CC(=O)OCC(=O)[C@@]1(O)CC[C@H]2[C@@H]3CCC4=CC(=O)CC[C@]4(C)[C@@]3(F)[C@@H](O)C[C@@]21C` [Fludrocortisone acetate] the value was inactive: 2; for `COc1ccc2c3c([nH]c2c1)[C@H]1C[C@H]2[C@H](C[C@@H](O)[C@H](OC)[C@H]2C(=O)O)CN1CC3` [Reserpinic acid hydrochloride], inactive: 0.978; for `NS(=O)(=O)c1cc(C2(O)NC(=O)c3ccccc32)ccc1Cl` (configuration not stated) [Chlorthalidone], inactive: 1.88.
As for `C=CC(N)CCC(=O)O` (configuration not stated) [Vigabatrin], the figure is inactive: 2.35.
Consider `Cc1ncc(C[n+]2csc(CCO)c2C)c(N)n1` [Thiamine hydrochloride], for which the “cell-surface Lgr5 expression” value is active: 3.64.
`CCN[C@H]1CN(CCCOC)S(=O)(=O)c2sc(S(N)(=O)=O)cc21` [Brinzolamide]: the “cell-surface Lgr5 expression” value is inactive: 1.73.
As for `CCCOc1cc(N)ccc1C(=O)OCCN(CC)CC` [Propoxycaine hydrochloride], the figure is inactive: 1.15; as for `CC[N+](C)(C)c1cccc(O)c1` [Edrophonium chloride], inactive: 1.04.
As to `OCCN1CCN(CC/C=C2/c3ccccc3Sc3ccc(C(F)(F)F)cc32)CC1` [Flupentixol dihydrochloride cis-(Z)], the “cell-surface Lgr5 expression” value is inactive: 0.829.
Turning to `CN1CCC(=C2c3ccccc3C=Cc3ccccc32)CC1` [Cyproheptadine hydrochloride], the “cell-surface Lgr5 expression” value is inactive: 1.16.
For `CC(C)(C)NC[C@@H](O)COc1cccc2c1CCCC2=O` [(+) -Levobunolol hydrochloride] the value was inactive: 2.49; for `N=C(N)NC(=N)NCCc1ccccc1` [Phenformin hydrochloride], inactive: 0.576.
As for `CC(=O)S[C@@H]1CC2=CC(=O)CC[C@]2(C)[C@H]2CC[C@@]3(C)[C@@H](CC[C@@]34CCC(=O)O4)[C@H]12` [Spironolactone], the figure is inactive: 0.576; as for `CC(Cc1cccc(C(F)(F)F)c1)NCCOC(=O)c1ccccc1` (configuration not stated) [Benfluorex hydrochloride], inactive: 1.41.
Consider `C=C1CC[C@H](O)C/C1=C/C=C1\CCC[C@]2(C)[C@@H]([C@H](C)CCCC(C)C)CC[C@@H]12` [Cholecalciferol], for which the “cell-surface Lgr5 expression” value is active: 2.86.
On to `NNCCc1ccccc1` [Phenelzine sulfate], for which the “cell-surface Lgr5 expression” value is inactive: 1.13.
For `C=C(C)[C@@H]1CC[C@]2(C(=O)O)CC[C@]3(C)[C@H](CC[C@@H]4[C@@]5(C)CC[C@H](O)C(C)(C)[C@@H]5CC[C@]43C)[C@@H]12` [Betulinic acid] the value was inactive: 1.53; for `O=C1NCCN1c1ncc([N+](=O)[O-])s1` [Niridazole], inactive: 0.621; for `CC(C)(C)C(=O)OCOC(=O)[C@@H]1N2C(=O)[C@@H](/N=C/N3CCCCCC3)[C@H]2SC1(C)C` [Pivmecillinam hydrochloride], inactive: 1.76.
As to `OCC(O)CN1CCN(c2ccccc2)CC1` (racemic) [Dropropizine (R,S)], the “cell-surface Lgr5 expression” value was inactive: 0.933.
For `CNc1ncnc2c1ncn2[C@@H]1O[C@H](CO)[C@@H](O)[C@H]1O` [N6-methyladenosine] the value was inactive: 1.62; for `C[C@@H](O)[C@H]1C(=O)N2C(C(=O)O)=C(SCCNC=N)C[C@H]12` [Imipenem], inactive: 2.09.
As for `c1ccc2c(c1)CCCC2C1=NCCN1` (configuration not stated) [Tetrahydrozoline hydrochloride], the figure is inactive: 1.82; as for `CCN(CC)CCCC(C)Nc1ccnc2cc(Cl)ccc12` (configuration not stated) [Chloroquine diphosphate], active: 2.87.
With `CS(=O)(=O)c1ccc([C@@H](O)[C@@H](CF)NC(=O)C(Cl)Cl)cc1` [Florfenicol], the “cell-surface Lgr5 expression” value is inactive: 1.37.
For `Nc1ccc(S(=O)(=O)NC(=O)c2ccccc2)cc1` [Sulfabenzamide] the value was active: 2.58; for `C=C(CC)C(=O)c1ccc(OCC(=O)O)c(Cl)c1Cl` [Ethacrynic acid], inactive: 1.07; for `CCCc1ncc(C[n+]2ccccc2C)c(N)n1` [Amprolium hydrochloride], inactive: 1.3.
As for `CC(C(=O)O)c1cccc(Oc2ccccc2)c1` (configuration not stated) [Fenoprofen calcium salt dihydrate], the figure is active: 3.88; as for `CCn1cc(C(=O)O)c(=O)c2cc(F)c(N3CCNCC3)nc21` [Enoxacin], inactive: 1.39.
As for `CC[C@H]1OC(=O)[C@H](C)[C@@H](O[C@H]2C[C@@](C)(OC)[C@@H](O)[C@H](C)O2)[C@H](C)[C@@H](O[C@@H]2O[C@H](C)C[C@H](N(C)C)[C@H]2O)[C@](C)(O)C[C@@H](C)C(=O)[C@H](C)[C@@H](O)[C@]1(C)O` [Erythromycin], the figure is inactive: 1.01; as for `OCCN1CCN(CCCN2c3ccccc3Sc3ccc(C(F)(F)F)cc32)CC1` [Fluphenazine dihydrochloride], inactive: -0.412.
`CC(C)(Oc1ccc(CCNC(=O)c2ccc(Cl)cc2)cc1)C(=O)O` [Bezafibrate]: the “cell-surface Lgr5 expression” value is inactive: 0.822.
`c1ccc(CC2=NCCN2)cc1` [Tolazoline hydrochloride]: the “cell-surface Lgr5 expression” value was inactive: 1.
`O=C1c2ccccc2C(=O)C1c1ccccc1` [Phenindione]: the “cell-surface Lgr5 expression” value was inactive: 2.06.
For `Clc1ccc2c(c1)C(N1CCNCC1)=Nc1ccccc1O2` [Amoxapine] the value was inactive: 0.844; for `O=C(O)CCc1nc(-c2ccccc2)c(-c2ccccc2)o1` [Oxaprozin], inactive: 1.11; for `Cc1ccc(N(CC2=NCCN2)c2cccc(O)c2)cc1` [Phentolamine hydrochloride], inactive: 0.643.
For `CCCSc1ccc2[nH]c(NC(=O)OC)nc2c1` [Albendazole] the value was inactive: 0.829; for `Cc1c(Cl)cccc1Nc1ccccc1C(=O)O` [Tolfenamic acid], inactive: 1.53.
For the compound `CO[C@H]1/C=C/O[C@@]2(C)Oc3c(C)c(O)c4c(O)c(c(/C=N/N5CCN(C)CC5)c(O)c4c3C2=O)NC(=O)/C(C)=C\C=C\[C@H](C)[C@H](O)[C@@H](C)[C@@H](O)[C@@H](C)[C@H](OC(C)=O)[C@@H]1C` [Rifampicin], the “cell-surface Lgr5 expression” value was inactive: 1.84.
For `C[C@]12CCC(=O)C=C1CC[C@@H]1[C@@H]2C(=O)C[C@@]2(C)[C@H]1CC[C@]2(O)C(=O)CO` [Cortisone] the value was inactive: 1.64; for `COCCCC/C(=N\OCCN)c1ccc(C(F)(F)F)cc1` [Fluvoxamine maleate], inactive: 0.733.
Turning to `O=C(O)C1CCCNC1` (racemic) [(±)-Nipecotic acid], the “cell-surface Lgr5 expression” value was inactive: 2.24.
For `CN(C)[C@@H]1C(O)=C(C(N)=O)C(=O)[C@@]2(O)C(O)=C3C(=O)c4c(O)cccc4[C@@](C)(O)[C@H]3C[C@@H]12` [Tetracycline hydrochloride] the value was inactive: 0.874; for `CC(=O)Oc1cc(C(F)(F)F)ccc1C(=O)O` [Triflusal], inactive: 1.49.
Consider `C[C@]12C=CC(=O)C=C1CC[C@@H]1[C@@H]2[C@@H](O)C[C@@]2(C)[C@H]1CC[C@]2(O)C(=O)CO` [Prednisolone], for which the “cell-surface Lgr5 expression” value was active: 4.19.
For `CS(=O)(=O)c1ccc([C@@H](O)[C@@H](CO)NC(=O)C(Cl)Cl)cc1` [Thiamphenicol] the value was inactive: 1.35; for `CC(C)Cc1ccc([C@H](C)C(=O)O)cc1` [S-(+)-ibuprofen], inactive: 2.
Turning to `O=C(O)Cc1ccccc1Nc1c(Cl)cccc1Cl` [Diclofenac sodium], the “cell-surface Lgr5 expression” value was active: 3.82.
For `CN1CCN(CCCN2c3ccccc3Sc3ccc(S(=O)(=O)N(C)C)cc32)CC1` [Thioproperazine dimesylate] the value was inactive: 1.29; for `CC(=O)O[C@]1(C(C)=O)CC[C@H]2[C@@H]3C=C(C)C4=CC(=O)CC[C@@H]4[C@H]3CC[C@@]21C` [Nomegestrol acetate], inactive: 1.93; for `NS(=O)(=O)c1cc2c(cc1Cl)N=C(CSCc1ccccc1)NS2(=O)=O` [Benzthiazide], inactive: 1.97.
